Reference: the supplement of paper PMC10849652
The other results are listed elsewhere or left out.

Chains of the proteins cited; added tags and fusions are not shown. Lines headed by an entry give the natural chain unless they say otherwise; changes in a name come on top.
UniProt P35670: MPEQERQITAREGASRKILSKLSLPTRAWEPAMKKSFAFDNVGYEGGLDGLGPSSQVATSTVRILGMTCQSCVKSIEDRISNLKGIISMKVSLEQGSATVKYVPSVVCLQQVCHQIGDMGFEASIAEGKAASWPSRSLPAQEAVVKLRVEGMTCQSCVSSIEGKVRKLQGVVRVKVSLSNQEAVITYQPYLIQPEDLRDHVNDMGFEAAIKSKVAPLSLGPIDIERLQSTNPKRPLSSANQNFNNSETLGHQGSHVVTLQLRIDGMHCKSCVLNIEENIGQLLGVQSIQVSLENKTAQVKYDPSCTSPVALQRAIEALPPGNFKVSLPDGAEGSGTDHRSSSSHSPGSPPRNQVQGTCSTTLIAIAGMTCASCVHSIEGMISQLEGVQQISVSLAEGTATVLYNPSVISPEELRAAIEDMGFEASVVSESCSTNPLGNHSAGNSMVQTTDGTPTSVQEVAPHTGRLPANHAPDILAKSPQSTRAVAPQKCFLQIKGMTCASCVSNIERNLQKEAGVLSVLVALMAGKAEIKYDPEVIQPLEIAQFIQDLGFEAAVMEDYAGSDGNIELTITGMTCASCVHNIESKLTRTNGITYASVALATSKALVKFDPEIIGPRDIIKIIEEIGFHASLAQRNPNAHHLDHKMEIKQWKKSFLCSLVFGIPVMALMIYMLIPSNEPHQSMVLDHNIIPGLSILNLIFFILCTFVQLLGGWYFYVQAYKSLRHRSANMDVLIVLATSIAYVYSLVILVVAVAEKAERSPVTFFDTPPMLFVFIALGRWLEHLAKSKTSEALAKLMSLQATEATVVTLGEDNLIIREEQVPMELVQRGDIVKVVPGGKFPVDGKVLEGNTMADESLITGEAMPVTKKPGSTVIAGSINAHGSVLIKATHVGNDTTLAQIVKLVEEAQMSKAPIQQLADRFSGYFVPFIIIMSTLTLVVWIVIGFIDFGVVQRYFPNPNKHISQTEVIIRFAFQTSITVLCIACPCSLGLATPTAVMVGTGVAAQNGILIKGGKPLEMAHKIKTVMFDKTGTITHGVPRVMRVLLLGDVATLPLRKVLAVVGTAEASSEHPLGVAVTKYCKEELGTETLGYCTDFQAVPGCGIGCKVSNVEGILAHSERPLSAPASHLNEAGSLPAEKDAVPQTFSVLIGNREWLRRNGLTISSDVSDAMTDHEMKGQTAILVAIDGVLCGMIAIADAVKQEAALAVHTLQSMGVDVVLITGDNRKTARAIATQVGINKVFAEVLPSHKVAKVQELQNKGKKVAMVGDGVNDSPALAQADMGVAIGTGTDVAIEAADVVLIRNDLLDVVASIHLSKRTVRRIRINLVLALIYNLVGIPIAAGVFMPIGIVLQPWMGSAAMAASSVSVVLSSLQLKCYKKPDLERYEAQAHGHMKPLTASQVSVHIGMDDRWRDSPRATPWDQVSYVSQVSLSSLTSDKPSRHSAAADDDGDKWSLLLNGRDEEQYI
UniProt Q12797: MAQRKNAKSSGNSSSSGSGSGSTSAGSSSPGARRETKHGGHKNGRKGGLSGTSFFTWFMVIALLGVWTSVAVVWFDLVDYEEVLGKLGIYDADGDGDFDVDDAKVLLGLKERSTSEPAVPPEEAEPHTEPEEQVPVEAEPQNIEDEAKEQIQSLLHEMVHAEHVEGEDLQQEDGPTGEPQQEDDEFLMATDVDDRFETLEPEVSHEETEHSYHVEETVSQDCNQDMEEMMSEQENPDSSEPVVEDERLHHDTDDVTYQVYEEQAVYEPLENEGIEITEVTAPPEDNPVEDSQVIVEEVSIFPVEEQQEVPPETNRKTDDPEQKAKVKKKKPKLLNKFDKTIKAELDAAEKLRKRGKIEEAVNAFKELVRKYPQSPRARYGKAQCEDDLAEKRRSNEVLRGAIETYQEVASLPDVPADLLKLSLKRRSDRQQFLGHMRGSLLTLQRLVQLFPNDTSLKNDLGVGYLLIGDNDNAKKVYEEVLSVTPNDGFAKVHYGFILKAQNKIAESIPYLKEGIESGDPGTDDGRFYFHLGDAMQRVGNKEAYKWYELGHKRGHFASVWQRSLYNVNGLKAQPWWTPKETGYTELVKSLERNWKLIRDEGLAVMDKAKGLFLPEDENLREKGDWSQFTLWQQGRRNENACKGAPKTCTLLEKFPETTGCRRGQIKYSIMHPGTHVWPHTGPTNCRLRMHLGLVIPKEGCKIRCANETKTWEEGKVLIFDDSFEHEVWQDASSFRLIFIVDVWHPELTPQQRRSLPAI
UniProt Q9NVI7: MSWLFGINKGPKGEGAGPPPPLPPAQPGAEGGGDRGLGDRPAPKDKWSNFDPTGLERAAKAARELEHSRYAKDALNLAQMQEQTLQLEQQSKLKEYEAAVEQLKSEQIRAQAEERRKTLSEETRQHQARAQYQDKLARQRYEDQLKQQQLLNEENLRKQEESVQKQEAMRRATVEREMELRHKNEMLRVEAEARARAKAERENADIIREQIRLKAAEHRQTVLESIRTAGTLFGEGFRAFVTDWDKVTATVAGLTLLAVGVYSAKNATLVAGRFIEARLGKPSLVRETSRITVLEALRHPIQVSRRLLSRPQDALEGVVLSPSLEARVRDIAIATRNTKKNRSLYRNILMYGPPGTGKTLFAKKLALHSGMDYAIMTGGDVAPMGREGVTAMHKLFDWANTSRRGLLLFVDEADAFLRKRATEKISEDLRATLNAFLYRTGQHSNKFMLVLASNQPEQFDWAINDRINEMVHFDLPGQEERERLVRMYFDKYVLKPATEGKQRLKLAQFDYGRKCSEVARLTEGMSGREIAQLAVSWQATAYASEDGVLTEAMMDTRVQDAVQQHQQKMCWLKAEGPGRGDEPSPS
UniProt Q8NBU5: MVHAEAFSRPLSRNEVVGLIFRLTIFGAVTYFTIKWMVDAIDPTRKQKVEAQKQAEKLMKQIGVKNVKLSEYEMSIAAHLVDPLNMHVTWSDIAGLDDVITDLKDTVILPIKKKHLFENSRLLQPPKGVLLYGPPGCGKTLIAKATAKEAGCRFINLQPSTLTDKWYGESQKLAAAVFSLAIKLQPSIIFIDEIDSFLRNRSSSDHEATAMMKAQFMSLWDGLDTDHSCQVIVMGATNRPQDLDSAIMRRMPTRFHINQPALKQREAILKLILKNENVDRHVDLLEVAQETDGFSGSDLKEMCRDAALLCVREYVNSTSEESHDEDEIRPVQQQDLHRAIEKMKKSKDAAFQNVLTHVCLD
UniProt O14965: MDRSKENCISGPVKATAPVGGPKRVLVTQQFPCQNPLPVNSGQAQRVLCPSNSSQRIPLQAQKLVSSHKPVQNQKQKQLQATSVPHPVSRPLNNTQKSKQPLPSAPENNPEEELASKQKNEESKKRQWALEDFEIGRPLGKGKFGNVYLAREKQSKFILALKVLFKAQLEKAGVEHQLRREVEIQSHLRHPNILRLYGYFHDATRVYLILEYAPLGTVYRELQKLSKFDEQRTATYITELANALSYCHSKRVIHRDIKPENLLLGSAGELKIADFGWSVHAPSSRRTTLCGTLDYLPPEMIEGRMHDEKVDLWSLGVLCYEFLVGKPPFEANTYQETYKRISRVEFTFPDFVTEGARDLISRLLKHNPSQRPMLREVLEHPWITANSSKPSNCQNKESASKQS
UniProt Q9Y679: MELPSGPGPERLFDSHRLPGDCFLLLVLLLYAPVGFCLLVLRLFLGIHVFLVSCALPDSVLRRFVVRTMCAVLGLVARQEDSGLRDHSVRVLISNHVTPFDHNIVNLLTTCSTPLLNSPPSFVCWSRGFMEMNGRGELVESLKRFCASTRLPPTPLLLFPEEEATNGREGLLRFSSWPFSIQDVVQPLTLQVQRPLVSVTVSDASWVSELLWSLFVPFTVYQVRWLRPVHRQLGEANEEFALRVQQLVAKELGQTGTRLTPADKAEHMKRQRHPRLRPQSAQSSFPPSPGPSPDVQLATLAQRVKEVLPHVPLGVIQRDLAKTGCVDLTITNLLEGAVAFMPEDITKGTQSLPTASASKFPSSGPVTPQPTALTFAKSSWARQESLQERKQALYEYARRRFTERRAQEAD
UniProt Q9Y575: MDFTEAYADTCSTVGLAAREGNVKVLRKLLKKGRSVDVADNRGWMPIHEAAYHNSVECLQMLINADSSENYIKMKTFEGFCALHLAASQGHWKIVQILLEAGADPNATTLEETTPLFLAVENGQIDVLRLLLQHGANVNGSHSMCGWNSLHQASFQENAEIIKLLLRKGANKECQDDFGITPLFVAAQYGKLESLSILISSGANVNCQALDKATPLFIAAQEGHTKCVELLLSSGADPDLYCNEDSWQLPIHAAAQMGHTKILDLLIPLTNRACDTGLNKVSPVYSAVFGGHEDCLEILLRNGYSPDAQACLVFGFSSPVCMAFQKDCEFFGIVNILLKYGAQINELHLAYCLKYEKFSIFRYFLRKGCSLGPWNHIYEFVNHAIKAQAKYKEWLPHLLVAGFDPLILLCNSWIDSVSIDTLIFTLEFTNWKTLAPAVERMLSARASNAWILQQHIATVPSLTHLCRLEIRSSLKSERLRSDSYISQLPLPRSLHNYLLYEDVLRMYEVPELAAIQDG
UniProt Q6VMQ6: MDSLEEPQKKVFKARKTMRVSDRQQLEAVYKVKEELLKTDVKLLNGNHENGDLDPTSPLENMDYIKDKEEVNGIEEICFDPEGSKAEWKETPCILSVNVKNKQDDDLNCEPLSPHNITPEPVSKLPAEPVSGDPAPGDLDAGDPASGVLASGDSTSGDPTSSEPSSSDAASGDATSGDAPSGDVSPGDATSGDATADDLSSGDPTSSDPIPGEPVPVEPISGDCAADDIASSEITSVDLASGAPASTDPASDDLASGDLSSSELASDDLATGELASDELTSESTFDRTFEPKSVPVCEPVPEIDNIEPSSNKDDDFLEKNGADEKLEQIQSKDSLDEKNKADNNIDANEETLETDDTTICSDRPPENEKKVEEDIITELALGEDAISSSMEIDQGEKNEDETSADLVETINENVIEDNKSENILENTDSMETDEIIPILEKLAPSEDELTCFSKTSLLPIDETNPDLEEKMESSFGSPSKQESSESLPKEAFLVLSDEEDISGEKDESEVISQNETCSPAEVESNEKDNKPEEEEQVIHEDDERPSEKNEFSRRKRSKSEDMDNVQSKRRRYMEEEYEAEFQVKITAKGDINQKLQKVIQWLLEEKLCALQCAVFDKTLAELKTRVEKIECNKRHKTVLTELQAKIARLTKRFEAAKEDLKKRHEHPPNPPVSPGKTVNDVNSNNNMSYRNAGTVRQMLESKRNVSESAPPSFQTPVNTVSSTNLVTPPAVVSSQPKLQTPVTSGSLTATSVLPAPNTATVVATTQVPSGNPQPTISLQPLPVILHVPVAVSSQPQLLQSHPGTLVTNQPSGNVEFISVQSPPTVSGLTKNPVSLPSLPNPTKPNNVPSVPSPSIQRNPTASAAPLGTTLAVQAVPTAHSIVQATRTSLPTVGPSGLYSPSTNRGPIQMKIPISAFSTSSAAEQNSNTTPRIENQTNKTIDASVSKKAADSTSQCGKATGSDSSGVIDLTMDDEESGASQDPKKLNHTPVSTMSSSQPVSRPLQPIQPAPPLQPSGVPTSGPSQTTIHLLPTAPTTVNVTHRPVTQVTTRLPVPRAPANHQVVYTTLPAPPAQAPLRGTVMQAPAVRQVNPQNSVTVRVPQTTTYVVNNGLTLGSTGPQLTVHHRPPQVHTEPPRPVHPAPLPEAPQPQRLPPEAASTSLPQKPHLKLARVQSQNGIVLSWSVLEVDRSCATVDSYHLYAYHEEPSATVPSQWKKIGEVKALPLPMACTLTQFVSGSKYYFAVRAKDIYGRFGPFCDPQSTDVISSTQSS
UniProt Q9H1Y0: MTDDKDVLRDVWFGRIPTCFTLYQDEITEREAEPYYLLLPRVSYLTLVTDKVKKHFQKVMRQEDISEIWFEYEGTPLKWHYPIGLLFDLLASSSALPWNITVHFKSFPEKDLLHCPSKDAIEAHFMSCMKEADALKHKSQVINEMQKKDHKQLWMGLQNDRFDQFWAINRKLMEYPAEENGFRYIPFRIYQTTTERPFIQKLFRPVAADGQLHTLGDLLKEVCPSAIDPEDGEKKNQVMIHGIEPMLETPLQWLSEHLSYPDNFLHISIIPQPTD
UniProt Q6ZNE5, whole entry, looked up: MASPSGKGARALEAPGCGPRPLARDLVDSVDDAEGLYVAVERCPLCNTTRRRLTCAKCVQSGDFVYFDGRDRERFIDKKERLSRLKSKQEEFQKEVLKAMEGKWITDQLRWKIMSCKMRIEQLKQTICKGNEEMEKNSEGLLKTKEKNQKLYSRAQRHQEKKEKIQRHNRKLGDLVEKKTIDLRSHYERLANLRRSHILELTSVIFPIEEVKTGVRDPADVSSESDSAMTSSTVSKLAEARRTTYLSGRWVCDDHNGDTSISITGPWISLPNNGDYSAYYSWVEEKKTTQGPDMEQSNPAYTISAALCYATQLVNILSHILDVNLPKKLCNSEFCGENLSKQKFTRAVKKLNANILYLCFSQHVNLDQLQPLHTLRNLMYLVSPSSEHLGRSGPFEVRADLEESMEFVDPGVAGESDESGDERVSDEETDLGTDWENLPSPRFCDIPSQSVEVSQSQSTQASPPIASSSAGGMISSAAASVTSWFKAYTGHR

Key:
Assay in all cases: log2 fold change, soluble protein after heating vs DMSO (PISA); higher = thermal stabilisation; K562 lysate, 10 uM; active = over 0.2 and 3.5 SD of the protein, either way, in both replicates (recomputed)
[1] = compound: C1=CC=C(C=C1)[C@H](COC2=CC3=C(C=C2)NC(=O)N3)NC(=O)C4=CC=CN(C4=O)CC5=CC(=C(C=C5)F)F
Method in brief: (§1)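 To prepare the extract, K562 pellets were dounce-homogenised in PBS pH 7.4 with 1 mM MgCl2, giving crude material at 1 mg/mL protein. This was treated with 10 μM compound for 30 min, then heated in aliquots for 3 min over 48°C-58°C before pooling and addition of NP-40 to 0.5% at 4°C. Centrifugation at 21,000xg for 90 min left soluble protein in the supernatant, which TMTpro 16plex LC-MS/MS quantified with equalised channel sums. Results are log-two fold changes in thermal stability compared with solvent controls, from duplicates.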

[2] = compound: CC1=C(SC2=C1C(=N[C@H](C3=NN=C(N32)C)CC(=O)N)C4=CC=C(C=C4)Cl)C
Method in brief: as §1

[3] = compound: CC1=C2C(=CC=C1)N=C(N(C2=O)C3=CC=CC=C3C)CN4C=NC5=C(N=CN=C54)N
Method in brief: as §1

[4] = compound: Cc1sc2c(c1C)C(c1ccc(Cl)cc1)=N[C@@H](CC(=O)OC(C)(C)C)c1nnc(C)n1-2
Method in brief: as §1

[5] = compound: c1ccc([C@@H]2C[C@H]2NC2CCNCC2)cc1
Method in brief: as §1

Measured: log2 fold change

ASCC2 (UniProt Q9H1I8)
inactive: [1] 0.181 | [2] 0.063 | [3] -0.027 | [4] -0.019 | [5] 0.076

ATG101 (UniProt Q9BSB4)
inactive: [1] 0.1 | [2] -0.045 | [3] 0 | [4] -0.048 | [5] -0.008

ASCC3 (UniProt Q8N3C0)
inactive: [1] -0.016 | [2] 0.062 | [3] 0.011 | [4] -0.029 | [5] 0

ATG2A (UniProt Q2TAZ0)
inactive: [1] -0.016 | [2] 0.012

ATP7B (UniProt P35670)
inactive: [1] -0.012 | [2] -0.003 | [3] 0.098 | [4] -0.06 | [5] -0.02

ASPH (UniProt Q12797)
inactive: [1] 0.006 | [2] 0.028 | [3] 0 | [4] -0.045 | [5] 0.026

ATM (UniProt Q13315)
inactive: [1] -0.015 | [2] 0.013 | [3] -0.037 | [4] 0.038 | [5] -0.036

ATAD3A (UniProt Q9NVI7)
inactive: [1] 0.155 | [2] 0.083 | [3] 0.026 | [4] 0 | [5] 0.209

B3GNT2 (UniProt Q9NY97)
inactive: [1] 0.02 | [2] 0.075 | [3] 0.085 | [4] -0.028 | [5] 0.047

AURKB isoform 5 (UniProt Q96GD4)
inactive: [1] 0.084 | [2] 0 | [3] -0.068 | [4] -0.008 | [5] -0.283

ATP1B2 (UniProt P14415)
inactive: [1] 0.018 | [2] 0.033 | [3] -0.03 | [4] -0.002

ATAD2B (UniProt Q9ULI0)
inactive: [1] 0.169 | [2] 0.05

ATP5F1C isoform 2 (UniProt P36542)
inactive: [1] -0.041 | [2] 0.057

ATXN10 (UniProt Q9UBB4)
inactive: [1] -0.002 | [2] 0.001 | [3] 0.01 | [4] -0.015 | [5] 0.038

Pulled one by one from the entries so far, two records:
ATP1B2 (UniProt P14415)
inactive: [1] 0.018 | [2] 0.033 | [3] -0.03 | [4] -0.002

ATP5F1C isoform 2 (UniProt P36542)
inactive: [1] -0.041 | [2] 0.057

Later entries

AVL9 (UniProt Q8NBF6)
inactive: [1] 0.024 | [2] 0.025 | [3] 0.012 | [4] -0.026 | [5] -0.059

NA (UniProt B2RBV5)
inactive: [1] -0.05 | [2] -0.113

ATRX (UniProt P46100)
inactive: [1] -0.035 | [2] -0.093 | [3] 0.164 | [4] -0.057 | [5] -0.036

ATAD1 (UniProt Q8NBU5)
inactive: [1] -0.052 | [2] 0.032 | [3] -0.015 | [4] -0.092 | [5] 0.002

AURKA (UniProt O14965)
inactive: [1] -0.053 | [2] -0.001 | [3] -0.042 | [4] -0.055 | [5] -0.157

AUP1 (UniProt Q9Y679)
inactive: [1] -0.007 | [2] -0.005 | [3] -0.022 | [4] -0.016 | [5] 0.032

ASB3 isoform 3 (UniProt Q9Y575)
inactive: [1] -0.12 | [2] -0.279 | [3] 0.003

ATF7IP isoform 4 (UniProt Q6VMQ6)
inactive: [1] 0.051 | [2] 0.007 | [3] 0.029 | [4] 0.017 | [5] 0

ATP5F1A (UniProt P25705)
inactive: [1] 0.013 | [2] 0.002 | [3] -0.006 | [4] -0.06 | [5] 0.01

ATL3 (UniProt Q6DD88)
inactive: [1] 0 | [2] -0.021 | [3] 0.028 | [4] -0.021 | [5] 0.049

ASF1B (UniProt Q9NVP2)
inactive: [1] 0.03 | [2] 0.042 | [3] 0.039 | [4] 0.001 | [5] 0.033

ATG5 (UniProt Q9H1Y0)
inactive: [1] 0.051 | [2] -0.024 | [3] -0.002 | [4] -0.028 | [5] -0.007

ATG14 (UniProt Q6ZNE5)
inactive: [1] -0.109 | [2] 0.105 | [3] 0.092 | [4] -0.043
